Our source for the binding values is paper PMC8301362.

Chains of the proteins cited; added tags and fusions are not shown.
UniProt P49817: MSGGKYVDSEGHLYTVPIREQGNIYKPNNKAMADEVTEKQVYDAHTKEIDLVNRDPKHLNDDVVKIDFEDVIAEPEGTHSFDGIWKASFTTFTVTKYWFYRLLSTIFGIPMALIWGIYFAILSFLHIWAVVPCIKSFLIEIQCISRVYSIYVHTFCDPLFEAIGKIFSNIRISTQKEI

This experiment addresses T1, Myocilin (MYOC) (mouse (endogenous in C2C12)) (UniProt O70624).
T1 sequence: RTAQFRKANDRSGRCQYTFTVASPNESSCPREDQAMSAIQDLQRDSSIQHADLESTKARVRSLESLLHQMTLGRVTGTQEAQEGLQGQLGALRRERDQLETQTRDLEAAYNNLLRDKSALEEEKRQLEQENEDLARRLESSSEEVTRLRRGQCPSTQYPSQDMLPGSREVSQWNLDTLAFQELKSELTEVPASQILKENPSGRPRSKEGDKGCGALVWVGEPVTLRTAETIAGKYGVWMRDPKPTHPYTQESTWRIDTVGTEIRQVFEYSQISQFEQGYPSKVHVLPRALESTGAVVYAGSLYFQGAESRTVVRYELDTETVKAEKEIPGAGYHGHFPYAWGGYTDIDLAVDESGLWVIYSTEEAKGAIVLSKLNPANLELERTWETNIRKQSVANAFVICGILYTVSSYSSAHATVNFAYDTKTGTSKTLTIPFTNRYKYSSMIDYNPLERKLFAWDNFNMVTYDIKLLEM
The experiment in a line: affinity purification with mass spectrometry; lysate (RIPA) of C2C12 cells on day 7 of differentiation; immunoprecipitation with anti-MYOC antibody overnight at 4 °C, protein A + G agarose beads; Coomassie-stained specific bands sequenced by mass spectrometry; rabbit IgG as control.

No constants are given. Whether binding was seen depends on the method and setting. In cells and extracts the contact can be indirect. These calls come from enrichment with a bait or labelling near it, and not all partners need be listed.

As to “Caveolin-1 (CAV1) (from UniProt P49817 1-178)”, the binding entry is listed as “binds”.
